The list is a part of this screen's results and no random one: it is rich in T/C values a quarter to a half above the control, in often repeated tests (any T/C) and in doses without a T/C. Other doses and runs of a compound stand elsewhere. T/C is the treated group as % of the vehicle group. Some entries give survivors of the animals treated and no T/C: the source files T/C as zero there, which appears to mark a toxic dose or a test without result, not a measured value. Some doses without a T/C left all or most animals alive at the check, yet need not have been tolerated: the source hardly ever lists a survival T/C far under the control, and the zero likely stands for such cases as well. Survivors were counted at the toxicity check, usually on the fifth day, unless a day is given; later deaths do not show. Schedule codes are those of the source, read here as Q, the interval in days (D) or hours (H), X, the number of doses. Signs of the kind (2×) give the number of equal values in this list. Some entries hold several experiments; the results are listed from low to high. Some schedules carry Z or #; the key to these is not given. For survival time, this PubChem deposit counts one and a half times the control or more as active, and values a quarter to a half above the control carry no call in these data; other NCI protocols may use other cut-offs. Some T/C values carry the count of animals alive at the toxicity check (mostly the fifth day); where none is given, no animal had died by that day.
Tested on: L1210 leukemia ip in BDF1 mice, survival T/C
Test: NCI In Vivo Anticancer Drug Screen. Data for tumor model L1210 Leukemia (intraperitoneal) in B6D2F1 (BDF1) mice
Details: T/C endpoint: mean survival time, higher T/C = longer survival
[1] = dose: 400.0 mg/kg/injection, schedule: Q01DX009 (ip), vehicle: saline with Tween-80
[2] = dose: 400.0 mg/kg/injection, schedule: Q01DX009 (ip), vehicle: saline
[3] = dose: 100.0 mg/kg/injection, schedule: Q01DX009 (ip), vehicle: saline with Tween-80
[4] = dose: 100.0 mg/kg/injection, schedule: Q04DX003 (ip), vehicle: saline
[5] = dose: 132.0 mg/kg/injection, schedule: Q01DX009 (ip), vehicle: saline
[6] = dose: 200.0 mg/kg/injection, schedule: Q01DX001 (ip), vehicle: saline
[7] = dose: 100.0 mg/kg/injection, schedule: Q01DX009 (ip), vehicle: Klucel (hydroxypropylcellulose) (HPC)
[8] = dose: 400.0 mg/kg/injection, schedule: Q01DX009 (ip), vehicle: Klucel (hydroxypropylcellulose) (HPC)
[9] = dose: 400.0 mg/kg/injection, schedule: Q04DX003 (ip), vehicle: saline with Tween-80

For `NC(=O)c1ccccc1N=NN(CCF)CCF`, the T/C (dose: 8.0 mg/kg/injection, schedule: Q04DX003 (ip), vehicle: Klucel (hydroxypropylcellulose) (HPC)) was 126 % of control, the survivor count (dose: 12.5 mg/kg/injection, schedule: Q01DX009 (ip), vehicle: Klucel (hydroxypropylcellulose) (HPC)) was 1 of 6 and the survivor count (dose: 18.0 mg/kg/injection, schedule: Q04DX003 (ip), vehicle: Klucel (hydroxypropylcellulose) (HPC)) was 0 of 6. The survivor count (dose: 25.0 mg/kg/injection, schedule: Q01DX009 (ip), vehicle: Klucel (hydroxypropylcellulose) (HPC)) was 0 of 6, the survivor count (dose: 50.0 mg/kg/injection, schedule: Q01DX001 (ip), vehicle: Klucel (hydroxypropylcellulose) (HPC)) was 0 of 6 and the survivor count (dose: 100.0 mg/kg/injection, schedule: Q01DX001 (ip), vehicle: other) was 0 of 6. For the same compound, the survivor count (dose: 200.0 mg/kg/injection, schedule: Q01DX001 (ip), vehicle: other) was 0 of 6 and the survivor count (dose: 400.0 mg/kg/injection, schedule: Q01DX001 (ip), vehicle: other) was 0 of 6.
`O=C(O)c1cc(CBr)cc(CBr)c1` was tested, and the survivor count (dose: 12.5 mg/kg/injection, schedule: Q01DX009 (ip), vehicle: saline with Tween-80) was 0 of 6 and the survivor count (dose: 25.0 mg/kg/injection, schedule: Q01DX001 (ip), vehicle: saline with Tween-80) was 1 of 6.
For `C=CCc1ccccc1OC`, the survivor count [1] was 1 of 6.
For `CSc1ccc(NC(=O)Nc2ccccc2C(N)=O)cc1`, the survivor count [2] was 6 of 6.
`c1ccc(N=N/C(=N/Nc2ccccc2)c2ccccc2)cc1` was tested, and the survivor count (dose: 25.0 mg/kg/injection, schedule: Q01DX009 (ip), vehicle: saline with Tween-80) was 6 of 6, the survivor count [3] was 0 of 6 and the survivor count (dose: 200.0 mg/kg/injection, schedule: Q01DX009 (ip), vehicle: saline with Tween-80) was 3 of 6. For the same compound, the survivor count [1] was 0 of 6.
In the case of `CCCCn1cnc2c(SSc3ncnc4c3ncn4CCCC)ncnc21`, the T/C (dose: 75.0 mg/kg/injection, schedule: Q01DX Z (ip), vehicle: saline) is reported as 131 % of control, the T/C (dose: 200.0 mg/kg/injection, schedule: Q04DX003 (ip), vehicle: gum acacia) is reported as 126 % of control [4 of 6 alive] and the survivor count (dose: 300.0 mg/kg/injection, schedule: Q01DX Z (ip), vehicle: saline) is reported as 0 of 6. The T/C (dose: 300.0 mg/kg/injection, schedule: Q04DX003 (ip), vehicle: gum acacia) was 139 % of control [5 of 6 alive].
For `CC(=O)NCC1(c2ccccc2)CCN(CCCC(=O)c2ccc(F)cc2)CC1`, the survivor count (dose: 6.25 mg/kg/injection, schedule: Q03HX024 (ip), vehicle: saline) was 6 of 6, the survivor count (dose: 12.5 mg/kg/injection, schedule: Q03HX024 (ip), vehicle: saline) was 6 of 6 and the T/C [4] was 134 % of control. The survivor count [4] was 6 of 6, the survivor count [5] was 0 of 6 and the survivor count (dose: 200.0 mg/kg/injection, schedule: Q04DX003 (ip), vehicle: saline) was 1 of 6 and 3 of 4. For the same compound, the survivor count (dose: 264.0 mg/kg/injection, schedule: Q01DX009 (ip), vehicle: saline) was 0 of 6, the survivor count (dose: 300.0 mg/kg/injection, schedule: Q01DX001 (ip), vehicle: saline) was 1 of 6 and the survivor count (dose: 400.0 mg/kg/injection, schedule: Q04DX003 (ip), vehicle: saline) was 0 of 4.
`CCN(CC)CCNc1nc(N)nc2c1nnn2CC` was tested, and the survivor count (dose: 400.0 mg/kg/injection, schedule: Q04DX003 (ip), vehicle: gum acacia) was 1 of 6.
With `CCOC(=O)c1cc(N(CCOS(C)(=O)=O)CCOS(C)(=O)=O)ccc1N` the T/C (dose: 10.0 mg/kg/injection, schedule: Q01DX001 (ip), vehicle: saline) was 131 % of control, the survivor count (dose: 10.0 mg/kg/injection, schedule: Q01DX015 (ip), vehicle: saline) was 1 of 6 and the survivor count (dose: 15.0 mg/kg/injection, schedule: Q01DX015 (ip), vehicle: saline) was 3 of 6. For the same compound, the T/C (dose: 20.0 mg/kg/injection, schedule: Q01DX001 (ip), vehicle: saline) was 127 % of control, the survivor count (dose: 40.0 mg/kg/injection, schedule: Q01DX001 (ip), vehicle: saline) was 1 of 4 and the survivor count (dose: 50.0 mg/kg/injection, schedule: Q01DX001 (ip), vehicle: saline) was 0 of 4. For the same compound, the survivor count (dose: 80.0 mg/kg/injection, schedule: Q01DX001 (ip), vehicle: saline) was 0 of 4, the survivor count (dose: 100.0 mg/kg/injection, schedule: Q01DX001 (ip), vehicle: saline) was 0 of 4 and the survivor count [6] was 0 of 4. For the same compound, the survivor count (dose: 400.0 mg/kg/injection, schedule: Q01DX001 (ip), vehicle: saline) was 0 of 4.
With `CN(C)CCCn1c2c(c3ccccc31)CCCCCC2` the survivor count (dose: 100.0 mg/kg/injection, schedule: Q01DX009 (ip), vehicle: saline) was 0 of 6.
`CNC(=S)n1ncnc1NC=O` was tested, and the survivor count (dose: 200.0 mg/kg/injection, schedule: Q04DX003 (ip), vehicle: acetone) was 1 of 6 and the survivor count (dose: 400.0 mg/kg/injection, schedule: Q04DX003 (ip), vehicle: acetone) was 0 of 6.
With `Cc1ccc([N+](=O)[O-])cc1NC(=O)Nc1cccc(C(F)(F)F)c1` the survivor count [7] was 6 of 6.
For `COc1ccc(COC(=O)Nc2ccccc2Cl)cc1`, the survivor count (dose: 200.0 mg/kg/injection, schedule: Q04DX002 (ip), vehicle: Klucel (hydroxypropylcellulose) (HPC)) was 3 of 3.
For `Cc1c(C)c(CC#N)c(C)c(C)c1CC#N`, the survivor count [8] was 6 of 6.
`[NH-]c1ccccc1C(=O)O.[NH-]c1ccccc1C(=O)O.[Zn+2]` was tested, and the survivor count (dose: 100.0 mg/kg/injection, schedule: Q04DX003 (ip), vehicle: Klucel (hydroxypropylcellulose) (HPC)) was 6 of 6, the survivor count (dose: 200.0 mg/kg/injection, schedule: Q04DX003 (ip), vehicle: Klucel (hydroxypropylcellulose) (HPC)) was 5 of 6 and the survivor count (dose: 400.0 mg/kg/injection, schedule: Q04DX003 (ip), vehicle: Klucel (hydroxypropylcellulose) (HPC)) was 0 of 6.
In the case of `Cc1c(NC(=O)Nc2cccc(C(F)(F)F)c2)c(=O)n(-c2ccccc2)n1C`, the survivor count [7] is reported as 6 of 6 (2×) and the survivor count [8] is reported as 5 of 6.
`COc1ncnc2c1nnn2C1OC(CO)C(O)C1O` (centres undefined) was tested, and the T/C (dose: 50.0 mg/kg/injection, schedule: Q01DX001 (ip), vehicle: saline with Tween-80) was 129 % of control.
In the case of `O=Cc1cc(O)ccc1[N+](=O)[O-]`, the survivor count [1] is reported as 0 of 6.
With `COc1ccc(-n2c(C)csc2=S)cc1` the survivor count [9] was 0 of 6.
For `c1cc2c3c(c1)nc(CCCc1nc4cccc5c4n1CCC5)n3CCC2`, the survivor count (dose: 200.0 mg/kg/injection, schedule: Q04DX003 (ip), vehicle: saline with Tween-80) was 6 of 6 and the survivor count [9] was 6 of 6.
In the case of `CCCCCCCCCCCC(=O)NC(=S)Nc1ccccc1C(=O)OC`, the survivor count [3] is reported as 3 of 3.
With `CCOCCOCCOCCCNCCCN1CC1` the T/C (dose: 60.0 mg/kg/injection, schedule: Q01DX009 (ip), vehicle: saline) was 128 and 138 % of control, the T/C (dose: 88.0 mg/kg/injection, schedule: Q01DX009 (ip), vehicle: saline) was 138 % of control and the T/C (dose: 132.0 mg/kg/injection, schedule: Q01DX001 (ip), vehicle: saline) was 134 % of control. The T/C [5] was 148 % of control, the survivor count [5] was 5 of 6 and the T/C [6] was 130 % of control. For the same compound, the survivor count (dose: 200.0 mg/kg/injection, schedule: Q01DX009 (ip), vehicle: saline) was 5 of 6 and the survivor count (dose: 300.0 mg/kg/injection, schedule: Q01DX009 (ip), vehicle: saline) was 0 of 6 and 1 of 3.
`O=C(O)CCCCSc1ncnc2nc[nH]c12` was tested, and the T/C (dose: 720.0 mg/kg/injection, schedule: Q01DX009 (ip), vehicle: saline with Tween-80) was 126 % of control.
`O=C(O)CCSSc1ccc([N+](=O)[O-])cc1[N+](=O)[O-]` was tested, and the survivor count (dose: 50.0 mg/kg/injection, schedule: Q01DX009 (ip), vehicle: Klucel (hydroxypropylcellulose) (HPC)) was 5 of 6.
In the case of `Nc1nc(=O)n(CC(=O)c2ccco2)cc1F`, the survivor count [2] is reported as 0 of 6.
`CCOC(=O)c1cnn(C(N)=O)c1N` was tested, and the survivor count [1] was 2 of 6.

From PubChem BioAssay AID248 (DTP/NCI, 2004)
